Measured values published in article PMC7819943, “Rice protein-binding microarrays: a tool to detect cis-acting elements near promoter regions in rice”.
The other results are listed elsewhere or left out.

By UniProt entry, the sequences of proteins in these tests, tags left out.
UniProt Q0JBA9, entry or part of it: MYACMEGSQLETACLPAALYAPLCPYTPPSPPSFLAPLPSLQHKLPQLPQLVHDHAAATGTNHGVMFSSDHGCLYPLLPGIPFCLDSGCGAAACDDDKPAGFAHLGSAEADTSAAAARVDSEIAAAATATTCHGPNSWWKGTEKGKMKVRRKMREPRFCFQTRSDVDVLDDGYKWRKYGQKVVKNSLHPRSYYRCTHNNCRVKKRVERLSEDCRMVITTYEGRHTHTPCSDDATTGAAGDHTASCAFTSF

molecular target: OsWRKY34 (Oryza sativa, UniProt Q0JBA9 1-250); test: protein-binding microarray (RPBM); PBS, 2% BSA, 51.3 ng/ul salmon testes DNA, 50 uM zinc acetate, 200 nM TF, 25 C, 1 h; high values mean tight binding; conditions: protein: recombinant; tags: N-terminal polyhistidine and DsRed monomer fusion (pET32a); label: CyDye5-dUTP incorporated in the synthesized complementary strand; 3' TTTTT single-stranded linker to array surface; dsDNA, one strand shown
Method in brief: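 Binding signal here means per-feature fluorescence intensity in arbitrary units. The values were read on an Axon 4000B scanner after a custom Agilent array, double-stranded by primer extension with Cy5-dUTP, was incubated with 200 nM protein at 25 °C for 1 h in PBS with 2% BSA, salmon testes DNA and 50 µM zinc acetate, then washed. The proteins were transcription factors with an N-terminal polyhistidine tag and DsRed, expressed in E. coli BL21-CodonPlus and purified on Ni–NTA.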

Row | Sequence | binding signal
1 | CTTCTTGATACTGACTCACAATCTGTTCGAACAAACTCTCCGGAGTCACCTAGTGCAG | 8610 fluorescence intensity (a.u.)
2 | CCATGTCCGCCACAACTCGCAACATGTACTCCATACGTCCCGGAGTCACCTAGTGCAG | 9290 fluorescence intensity (a.u.)
3 | ATGTTGATATTGTGGTTGGTTGTGGGCATGTTACATTTTCCGGAGTCACCTAGTGCAG | 11500 fluorescence intensity (a.u.)
4 | GGGCAAGCATCCAACACTCTTAGTTCCCATTGCTCACATTCGGAGTCACCTAGTGCAG | 12500 fluorescence intensity (a.u.)
5 | GTGGGGATTGGGGATCGGAGAGAAGGGGAAATTTTGGACGCGGAGTCACCTAGTGCAG | 9300 fluorescence intensity (a.u.)
6 | CTGTGTCTTTCGTTTTTCTTTTTTAAAAAAACACATGCTACGGAGTCACCTAGTGCAG | 9680 fluorescence intensity (a.u.)
7 | ACATTTTAAGTTTTTTATACTATGCATATTGTTTTAGTGCCGGAGTCACCTAGTGCAG | 8400 fluorescence intensity (a.u.)
8 | CGATGCTTCGATCCCGCGCCGACCTCGATCCGCATTAACTCGGAGTCACCTAGTGCAG | 8490 fluorescence intensity (a.u.)
9 | CGTGAGTGCTGCCCACTTATTTTTCCTTTACGCAACAACACGGAGTCACCTAGTGCAG | 9110 fluorescence intensity (a.u.)
10 | TCAACAAATAGTTTCACTCATCACTCATTAACTCATTCTTCGGAGTCACCTAGTGCAG | 8300 fluorescence intensity (a.u.)
11 | ACAACTTTCCCATTTGAAATCATTTACTACCCGAAAAATTCGGAGTCACCTAGTGCAG | 8090 fluorescence intensity (a.u.)
12 | CCTTCCTACGTGGCCTCCGGCCCCACCTCCCGCCCGTTGCCGGAGTCACCTAGTGCAG | 8620 fluorescence intensity (a.u.)
13 | AATCCGCATCATCAGAAGAATATGATATATTCTGTCAAACCGGAGTCACCTAGTGCAG | 8880 fluorescence intensity (a.u.)
14 | TTTCTCAACTTTTTCTTAATGTTCTCGTGTTTTATTTCCGCGGAGTCACCTAGTGCAG | 12200 fluorescence intensity (a.u.)
15 | TCTGATTTGCTTCCTCCGCGAACCGGTCGTCTTCTCCAGCCGGAGTCACCTAGTGCAG | 8780 fluorescence intensity (a.u.)
16 | ACCCCATCGGCCATATGCTCATTTCCTAGCTGATATTGCACGGAGTCACCTAGTGCAG | 12400 fluorescence intensity (a.u.)
17 | AGTTCCTGCCTAATTGACTTACGCTGACTCTGTCAATATCCGGAGTCACCTAGTGCAG | 8710 fluorescence intensity (a.u.)
18 | TCTCTGCTTCTCGTTGTTCTTGGTTGGTTGTTGTTGTAGACGGAGTCACCTAGTGCAG | 19400 fluorescence intensity (a.u.)
19 | GTACGTGCTTGTGGCTTATTGGGCCTGGTCCTGATTGGACCGGAGTCACCTAGTGCAG | 11100 fluorescence intensity (a.u.)
20 | GGTGGTGGTGGTGGTGGATCGGGTGGCTTTGGCTGAGATGCGGAGTCACCTAGTGCAG | 18100 fluorescence intensity (a.u.)
21 | ATATGTAATTTGTTTTGTTTTAGTCTACGTTTAATAGTTCCGGAGTCACCTAGTGCAG | 8250 fluorescence intensity (a.u.)

Row | Sequence | binding signal
22 | TGATGCCGGATTGCCAATGGGGTTGGGTTGGTCTGAATGACGGAGTCACCTAGTGCAG | 10700 fluorescence intensity (a.u.)
23 | TTTCAGCTCCATCAAGGTGTTCTCCACCATTGACATCTCCCGGAGTCACCTAGTGCAG | 8140 fluorescence intensity (a.u.)
24 | TCCTTACCATCACTGTCACCTTCCCTAGACACAACCGCCACGGAGTCACCTAGTGCAG | 9800 fluorescence intensity (a.u.)
25 | CTACTCCCTCCATTTCGAAATGTTTGACACCGTTGACTTTCGGAGTCACCTAGTGCAG | 13900 fluorescence intensity (a.u.)
26 | GTGGTGGAACTAGGGTTTTTGCAATCTCAATCTCAATTCCCGGAGTCACCTAGTGCAG | 9100 fluorescence intensity (a.u.)
27 | GCTTCCAAGGAATTTCTGGTTTGTACGCCTTATGCCTGAACGGAGTCACCTAGTGCAG | 9080 fluorescence intensity (a.u.)
28 | ACATGGTCTTTTGTTTTATATTTGGCACTTCTAATATATCCGGAGTCACCTAGTGCAG | 9640 fluorescence intensity (a.u.)
29 | ACCCTAAAATTTGTGTCTGGACTATTTTCTCATCCAATCCCGGAGTCACCTAGTGCAG | 8980 fluorescence intensity (a.u.)
30 | ATGTTGTCGTGTATCATTTGTTTTTCTTATGTTATTTTCTCGGAGTCACCTAGTGCAG | 10700 fluorescence intensity (a.u.)
31 | AAACCAACCCCACCCAACCCACGCGAGAACCGTGGACCACCGGAGTCACCTAGTGCAG | 9500 fluorescence intensity (a.u.)
32 | GCCCTCGCCGTCGTCTCGTCTCGTCTCGCCCGCCTCCATGCGGAGTCACCTAGTGCAG | 10100 fluorescence intensity (a.u.)
33 | GAGGAGGGGATTGGGTGCTTGGAAAGCATGGCGCGGCAGTCGGAGTCACCTAGTGCAG | 8850 fluorescence intensity (a.u.)
34 | CAGACCTGGAGGTTGTTGCCCTTGATGTGCGCCCAGATGACGGAGTCACCTAGTGCAG | 8470 fluorescence intensity (a.u.)
35 | GTCAATTTCCTCAGGACCTATCCTGAACTCGCGTAGCGATCGGAGTCACCTAGTGCAG | 8310 fluorescence intensity (a.u.)
36 | TTCCTTTCTTTGTGTGTTTTTAAGTTATAAAGTGAACTTGCGGAGTCACCTAGTGCAG | 10000 fluorescence intensity (a.u.)
37 | TTTCGGTTCATGTGCCACGATTGATCTACTCGATTGATATCGGAGTCACCTAGTGCAG | 8860 fluorescence intensity (a.u.)
38 | CTTATAGGTCGTGTTGTGACCTGGCTTGCCACACCTAGATCGGAGTCACCTAGTGCAG | 8210 fluorescence intensity (a.u.)
39 | TGTGACTCTACATCAAACAATATCCATTTAAGTTTTTTTCCGGAGTCACCTAGTGCAG | 8450 fluorescence intensity (a.u.)
40 | CTCGCCGCCGCCGCTCTTTGCTTCTGCACGTAGCATCCTCCGGAGTCACCTAGTGCAG | 12200 fluorescence intensity (a.u.)
41 | TCTACTTTTCTCCACTCTTTTGCTATAGGGGCTGGGGTGGCGGAGTCACCTAGTGCAG | 14200 fluorescence intensity (a.u.)
42 | AATTATATTGTCTAGCTATTTTACATGTTATTTCTACTATCGGAGTCACCTAGTGCAG | 10800 fluorescence intensity (a.u.)

Taken from above:
ATATGTAATTTGTTTTGTTTTAGTCTACGTTTAATAGTTCCGGAGTCACCTAGTGCAG | binding signal: 8250 fluorescence intensity (a.u.)
GCTTCCAAGGAATTTCTGGTTTGTACGCCTTATGCCTGAACGGAGTCACCTAGTGCAG | binding signal: 9080 fluorescence intensity (a.u.)
